Reference: PubChem BioAssay AID504764 (Drosophila RNAi Screening Center, 2011)
Purpose: 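Genes whose knock-down alters Notch-dependent transcription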 (primary screen). System: Drosophila Kc167 cells. Knock-down reagent: long dsRNA against Drosophila genes. Time to read-out: about 5 days (4 days dsRNA, then 24 h after transfection). Treatment: transfection of constitutively active membrane-tethered Notch lacking the extracellular domain, read 24 h later. Measured: 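Firefly luciferase from an E(spl)m3 reporter with active Notch, plus control-promoter and uninduced reporter wells for normalisation; unnormalised counts, duplicate wells a and b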. Scale: induced reporter light, run 1, well a and induced reporter light, run 1, well b: higher = more light from the Notch target reporter with active Notch; control promoter light, run 1, well a and control promoter light, run 1, well b: higher = more light from the viral control promoter (cell number, transfection, viability); uninduced reporter light, run 1, well a: higher = more light from the Notch target reporter without active Notch. Hit rule: 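Hit if the duplicate-averaged log2 ratio of induced to control-promoter light gives a plate-wise z beyond ±2, or induced to uninduced beyond ±1.8; weak-control or discordant-duplicate wells dropped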. Calls: active = modifier hit (raised or lowered Notch signal); inactive = not a hit.
The deposit covers about 22,000 reagents; shown is an unselected part of those with a known target gene and a result. Of all reagents, 403 (1.9%) were called active. 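Unnormalised raw counts per well; ratio z-scores behind the hit calls and whether each hit raises or lowers signal are not deposited.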 The numbers tell different reagents against one gene apart. A plus sign joins genes that one reagent is predicted to hit. Reagent sequences are not shown. The record does not give: the amount of reagent.

gene,reagent,"induced reporter light, run 1, well a","induced reporter light, run 1, well b","control promoter light, run 1, well a","control promoter light, run 1, well b","uninduced reporter light, run 1, well a",outcome
CG13001,1,87335,97170,84795,1.23e5,13140,inactive
CG4835,1,2.57e5,2.62e5,1.92e5,2.21e5,16520,inactive
dgt4,1,1.60e5,1.53e5,2.48e5,2.35e5,12320,inactive
CG42390,1,12580,11700,11405,12865,3520,inactive
CG42296,1,1.23e5,1.20e5,1.19e5,64340,9045,inactive
yellow-c + CIAPIN1,1,1.43e5,1.44e5,1.28e5,1.42e5,12020,inactive
Prestin,1,1.26e5,1.85e5,2.07e5,1.84e5,7585,inactive
CG32681,1,70115,67620,77615,67630,5065,inactive
CG18476,1,1.20e5,1.31e5,61360,53735,9138,inactive
CG4511,1,30415,29675,23228,24555,2680,inactive
Cyp6a13,1,2.07e5,1.75e5,2.11e5,2.00e5,17375,inactive
Osi15,1,1.63e5,1.29e5,1.19e5,1.07e5,8075,inactive
CG11723,1,1.09e5,2.09e5,2.22e5,2.08e5,17765,inactive
bisc,1,70780,62145,43575,57030,5260,inactive
CG10063,1,3.39e5,2.64e5,3.51e5,3.95e5,14110,inactive
FucTA,1,79635,54625,77410,50325,7980,inactive

Continued, starting with the last 3 of the part before.
gene,reagent,"induced reporter light, run 1, well a","induced reporter light, run 1, well b","control promoter light, run 1, well a","control promoter light, run 1, well b","uninduced reporter light, run 1, well a",outcome
bisc,1,70780,62145,43575,57030,5260,inactive
CG10063,1,3.39e5,2.64e5,3.51e5,3.95e5,14110,inactive
FucTA,1,79635,54625,77410,50325,7980,inactive
CG15599,1,74695,56440,79955,57795,8185,inactive
Mvk + CG33672 + spt4,1,2.24e5,2.18e5,2.23e5,2.33e5,18090,inactive
Mvk + CG33672 + spt4,2,1.79e5,1.61e5,1.80e5,1.81e5,17790,inactive
Acat1,1,2.37e5,1.92e5,3.08e5,2.96e5,14105,inactive
Hmbs,1,1.13e5,1.05e5,2.23e5,2.58e5,11705,inactive
NC2beta,1,2.16e5,2.38e5,1.89e5,1.94e5,16715,inactive
Pcmt,1,82180,1.29e5,97135,91280,6665,inactive
CG11357,1,1.62e5,1.80e5,2.39e5,1.99e5,14020,inactive
CG1463,1,2.23e5,1.67e5,1.97e5,2.04e5,14105,inactive
CG31663,1,1.05e5,95105,1.76e5,1.14e5,9695,inactive
CG31663,2,1.64e5,1.98e5,1.39e5,1.77e5,14105,inactive
CG31663,3,1.96e5,1.63e5,3.34e5,2.76e5,14425,inactive
CG31663,4,1.87e5,1.72e5,1.63e5,59960,11180,inactive
CG34325,1,72470,63740,70810,85385,10560,inactive
CG34325,2,50530,67955,64260,61610,7485,inactive
Esyt2,1,1.16e5,1.19e5,1.57e5,1.57e5,6930,inactive
Akt,1,1.02e5,1.28e5,1.48e5,1.55e5,13110,inactive
CG10804,1,1.70e5,1.85e5,2.28e5,2.22e5,12255,inactive
